Data as given in PubChem BioAssay AID1259425 (University of Nebraska Medical Center, 2018).

- Assay: 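Compare each knockdown with KSR1 silencing using changes in marker transcripts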 (primary screen)
- System: HCT116 human colon cancer cells
- Reagents: siRNA pool against human genes, 50 nM siRNA
- Detection: 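mRNA of six signature genes measured together by branched-DNA assay after 50 nM siRNA pool, blank removed, divided by geometric mean of two housekeeping genes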
- Reading the numbers: BNIP3L mRNA: higher = more BNIP3L transcript after knockdown; NDRG1 mRNA: higher = more NDRG1 transcript after knockdown; BNIP3 mRNA: higher = more BNIP3 transcript after knockdown; ALDOC mRNA: higher = more ALDOC transcript after knockdown; ACSL5 mRNA: higher = more ACSL5 transcript after knockdown
Here is a random part of about 14,000 deposited reagents. Reagent sequences are not shown. Not stated in the record: the time to read-out.

no.	gene symbol	PubChem SID	BNIP3L mRNA, set 1	NDRG1 mRNA, set 1	BNIP3 mRNA, set 1	ALDOC mRNA, set 1	ACSL5 mRNA, set 1
1	TSR1	SID364000804	0.134	0.252	0.25	0.0245	0.418
2	PDPK1	SID363993781	0.116	0.147	0.319	0.0193	0.379
3	PBX2	SID363993755	0.0923	0.082	0.261	0.0417	0.131
4	ADRM1	SID363997738	0.184	0.156	0.221	0.0353	0.0818
5	HOXC12	SID364004853	0.0739	0.223	0.244	0.0156	0.161
6	MBOAT7	SID364002774	0.07	0.216	0.13	0.0862	0.264
7	DNAJC22	SID364003149	0.139	0.138	0.393	0.0607	0.0815
8	TAGLN3	SID363998383	0.17	1.16	0.367	0.0313	0.247
9	ZNF230	SID363997122	0.175	0.336	0.33	0.0321	0.0328
10	MPPED2	SID363992829	0.087	0.133	0.297	0.0132	0.163
11	B3GAT3	SID363998133	0.0472	0.22	0.321	0.0191	0.138
12	RSAD2	SID364004490	0.115	0.161	0.407	0.0242	0.214
13	RPIA	SID364004613	0.124	0.4	0.28	0.0316	0.212
14	PGM1	SID363993801	0.134	0.372	0.218	0.0487	0.144
15	ADH5	SID363991970	0.0981	0.373	0.418	0.0545	0.165
16	TCN2	SID363991687	0.0842	0.198	0.311	0.0343	0.146
17	KYAT3	SID364001438	0.112	0.174	0.273	0.0244	0.352
18	FLOT1	SID363996681	0.159	0.183	0.229	0.0234	0.172
19	SMIM11	SID364004464	0.163	0.117	0.343	0.0265	0.117
20	S1PR2	SID363995229	0.12	0.187	0.27	0.0248	0.227

Sorted by “ALDOC mRNA, set 1” (high to low): some entries from above.
gene symbol	PubChem SID	BNIP3L mRNA, set 1	NDRG1 mRNA, set 1	BNIP3 mRNA, set 1	ALDOC mRNA, set 1	ACSL5 mRNA, set 1
ADRM1	SID363997738	0.184	0.156	0.221	0.0353	0.0818
HOXC12	SID364004853	0.0739	0.223	0.244	0.0156	0.161
